{"sequences": {"note": "Amino acid sequences for entries named in this document (tags omitted). A change or cut given only in a name is not applied to a line headed by its entry.", "UniProt Q9UEE9": "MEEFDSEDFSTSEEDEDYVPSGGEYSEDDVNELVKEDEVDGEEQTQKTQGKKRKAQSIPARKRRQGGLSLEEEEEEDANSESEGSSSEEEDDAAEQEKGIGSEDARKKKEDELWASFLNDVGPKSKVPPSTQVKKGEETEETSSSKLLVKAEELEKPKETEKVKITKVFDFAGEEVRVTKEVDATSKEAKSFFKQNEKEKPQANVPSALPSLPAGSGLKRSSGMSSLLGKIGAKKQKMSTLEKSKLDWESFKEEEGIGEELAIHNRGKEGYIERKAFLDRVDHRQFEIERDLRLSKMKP", "UniProt A0A0B7PL88": "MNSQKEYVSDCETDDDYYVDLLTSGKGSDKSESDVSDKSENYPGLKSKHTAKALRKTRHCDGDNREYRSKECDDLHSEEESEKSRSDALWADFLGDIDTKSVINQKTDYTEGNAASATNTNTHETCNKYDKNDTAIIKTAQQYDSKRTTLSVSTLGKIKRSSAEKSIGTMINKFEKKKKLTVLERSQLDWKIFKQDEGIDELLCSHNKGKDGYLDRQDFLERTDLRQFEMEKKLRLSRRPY"}, "source": "paper PMC5377257", "target": "V5-CFDP1 (Cranio Facial Development Protein 1 tagged with V5) (human) (UniProt Q9UEE9)", "experiment": "co-IP; cleared lysates of transfected HeLa cells (IP buffer: 50 mM Tris-HCl pH 7.5, 150 mM NaCl, 1% NP-40, 5 mM EGTA, 5 mM EDTA, 20 mM NaF) immunoprecipitated O/N at 4 °C with mouse anti-V5 antibody and protein A/G agarose; Ms IgG as negative control; Western blot", "note": "Results are given in words; binding and its absence hold for the method and conditions named. In cells and extracts the contact can be indirect. Binding calls can cover weak binding; strength is not graded here."}
{"substance": "Flag-YETI (from UniProt A0A0B7PL88)", "values": [{"measurement": "binding", "result": "binds"}]}
